# Values quoted from earlier work in US7632972B2, “Compounds and methods for treatment of cancer and modulation of programmed cell death for melanoma and other cancer cells” (The Board of Trustees of the University of Illionis, priority 2003, dated 2009).
# For at least one compound, name, drawing or mass did not settle the structure.
# Test system: melanoma
# Conditions: cited from earlier work
structure (smiles),measurement,value
CN(C)/N=N/c1[nH]cnc1C(N)=O [dacarbazine],"complete remission, share of patients",2%
